Results are given in words; binding and its absence hold for the method and conditions named. Binding seen in cells or lysates may run through a third protein. Some entries that bind do so weakly or less than the wild type. Tags and fused reporters may be left off the sequences shown.

Amino acid sequences for entries named in this document (tags omitted).
UniProt P26040: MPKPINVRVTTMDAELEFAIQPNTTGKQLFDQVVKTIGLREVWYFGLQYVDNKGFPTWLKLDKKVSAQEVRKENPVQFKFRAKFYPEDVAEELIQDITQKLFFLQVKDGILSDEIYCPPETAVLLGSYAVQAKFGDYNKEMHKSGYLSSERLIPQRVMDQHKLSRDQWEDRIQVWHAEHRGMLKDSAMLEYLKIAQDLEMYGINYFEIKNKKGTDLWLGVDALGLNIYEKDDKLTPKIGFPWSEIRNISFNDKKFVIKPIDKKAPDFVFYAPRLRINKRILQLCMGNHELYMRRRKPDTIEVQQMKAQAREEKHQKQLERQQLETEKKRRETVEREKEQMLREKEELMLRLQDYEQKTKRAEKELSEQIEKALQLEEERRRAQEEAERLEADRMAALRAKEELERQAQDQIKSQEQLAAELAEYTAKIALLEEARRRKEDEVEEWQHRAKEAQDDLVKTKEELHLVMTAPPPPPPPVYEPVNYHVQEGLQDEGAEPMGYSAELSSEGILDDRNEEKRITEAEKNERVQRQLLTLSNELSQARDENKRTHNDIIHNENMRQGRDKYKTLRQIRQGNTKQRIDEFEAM

We go through four molecules from PMC10132990.

For one assay, the target named is T1, 3×HA-SAPAP3 (UniProt Q6PFD5).
T1 sequence: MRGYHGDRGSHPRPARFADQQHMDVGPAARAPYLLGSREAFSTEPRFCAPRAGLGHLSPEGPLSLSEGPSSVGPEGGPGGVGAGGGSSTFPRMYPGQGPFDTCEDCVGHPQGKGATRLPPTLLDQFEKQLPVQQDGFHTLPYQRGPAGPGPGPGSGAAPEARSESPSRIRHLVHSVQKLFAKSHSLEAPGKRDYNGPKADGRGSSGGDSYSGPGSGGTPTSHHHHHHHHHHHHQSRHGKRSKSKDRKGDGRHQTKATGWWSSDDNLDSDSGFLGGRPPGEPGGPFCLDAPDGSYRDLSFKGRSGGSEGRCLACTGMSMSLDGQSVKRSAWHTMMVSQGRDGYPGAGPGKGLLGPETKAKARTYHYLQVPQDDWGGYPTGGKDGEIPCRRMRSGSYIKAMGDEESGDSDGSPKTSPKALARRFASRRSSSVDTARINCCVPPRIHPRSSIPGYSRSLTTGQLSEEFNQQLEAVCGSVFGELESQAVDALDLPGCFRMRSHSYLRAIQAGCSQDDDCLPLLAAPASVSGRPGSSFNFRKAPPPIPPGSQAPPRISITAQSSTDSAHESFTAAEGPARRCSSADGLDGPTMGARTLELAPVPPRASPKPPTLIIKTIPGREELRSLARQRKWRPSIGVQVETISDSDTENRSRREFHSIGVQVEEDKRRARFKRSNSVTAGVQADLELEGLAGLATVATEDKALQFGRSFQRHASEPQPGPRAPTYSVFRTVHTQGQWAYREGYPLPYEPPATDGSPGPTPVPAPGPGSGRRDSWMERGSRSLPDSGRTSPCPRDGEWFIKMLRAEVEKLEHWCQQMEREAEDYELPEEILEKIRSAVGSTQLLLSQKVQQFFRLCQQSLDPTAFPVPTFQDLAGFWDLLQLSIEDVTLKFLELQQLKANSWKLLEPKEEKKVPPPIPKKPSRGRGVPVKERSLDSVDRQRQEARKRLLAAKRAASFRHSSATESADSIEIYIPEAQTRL
The assay is described as follows: co-IP; recombinant proteins co-expressed by AAV in striatal astrocytes in vivo; cleared striatal lysate (25 mM HEPES pH 7.5, 150 mM NaCl, 1% NP-40) on GFP-trap beads or anti-HA tag beads overnight at 4 °C; washes with 500 mM NaCl; blots for GFP and HA.

The target in a further assay is EZR–GFP (UniProt P26040). Described as above.
The target of assay [1] is EZR (endogenous) (mouse (endogenous in striatum)) (UniProt P26040). Put plainly: proximity ligation; Duolink PLA on fixed-frozen 20 μm striatal sections; rabbit anti-SAPAP3 with mouse anti-GLT1 or mouse anti-EZR; puncta counted within tdTomato+ astrocytes; WT mice, SAPAP3 KO mice and SAPAP3 KO mice injected with Astro GFP or Astro SAPAP3.

Turning to EZR–GFP (from UniProt P26040 1-586), the binding result with 3×HA-SAPAP3 is given as “binds”.

B1: 3×HA-SAPAP3 (protein, UniProt Q6PFD5 1-977)
chain: T1 sequence
B1: the binding entry in the assay with EZR–GFP is reported as “binds”.

B2: SAPAP3 (endogenous) (protein, UniProt Q6PFD5 1-977)
chain: T1 sequence
In the case of B2, the binding entry in assay [1] is “binds”.

B3: Astro GFP–SAPAP3 (protein, UniProt Q6PFD5 1-977)
chain: T1 sequence
Turning to B3, the binding result in assay [1] is on record as “binds”.
